Tested on: M200 filaments
Assay: Stopped-flow turbidity, dissociation of M200 filaments on NaCl jump or dilution
Assay type: biochemical, human
Settings: NaCl jump
Description: Fig. 9 Dissociation of M200 filaments by S100A4. (a) Initially, M200 was added (i) from a concentrated stock in 0.5 M NaCl to give a final concentration of 5 μM M200 (with respect to the polypeptide chain) in 100 mM NaCl, 10 mM Hepes, and 0.1 mM Ca^2+ at pH 7.5 and 20 °C. A biphasic rise in turbidity was recorded for 200 s (continuous line). Then 10 μM S100A4 (with respect to monomer concentration) was added (ii), followed by 0.2 mM EGTA (iii) and 1 mM Ca^2+ (iv). […] (b) M200 was diluted (i) into 100 mM NaCl to form filaments as in (a), then 5 μM S100A4 was added (ii), causing a 54% drop in turbidity. A further 5 μM S100A4 (iii) caused turbidity to fall to almost zero. (c) Stopped-flow records monitoring the dissociation of 5 μM M200 filaments on jumping [NaCl] from 100 mM to 120 mM NaCl. Other components of the buffer were 20 mM Hepes, 1 mM Mg^2+, and 100 μM Ca^2+ at pH 7.5 and 20 °C. […] In the presence of 20 μM S100A4 (lower trace), the turbidity decreased by 87% with a rate constant of 0.2 s^− 1.
It is of interest to know whether S100A4 drives depolymerisation solely by binding to free M monomer and allowing the polymer equilibrium to readjust (i.e., via k− 4 and k5), or whether S100A4 also binds to the filament bundle and actively depolymerises an M200 unit (via k6 and k− 7). […] In an attempt to address this question, the dissociation rate of the M200 filament was followed on jumping the NaCl concentration from 100 mM to 120 mM in the absence and in the presence of S100A4 (Fig. 9c). Under these conditions in the absence of S100A4, turbidity dropped to about 50% of its initial value with a profile fitted to a double exponential (k1obs = 0.33 s^− 1 with 12% amplitude and k2obs = 0.037 s^− 1 with 43% amplitude, relative to the total amplitude expected for a full dissociation). Therefore, at the end point of this reaction, the filament concentration decreased by about 2-fold (turbidity is proportional to concentration over this range; Fig. S5b). There should also be a corresponding rise in M200 monomer concentration, but this may be less than accounted for by the loss of filaments if the drop in turbidity was also associated with a rise in small M200 oligomers with a lower specific turbidity. […]

B1: M200: His-tagged human NM-MHC IIA residues Q1761-E1960, V1913I substitution (protein, UniProt P35579 1761-1960, looked up, variant V1913I)
chain: QINTDLNLERSHAQKNENARQQLERQNKELKVKLQEMEGTVKSKYKASITALEAKIAQLEEQLDNETKERQAACKQVRRTEKKLKDVLLQVDDERRNAEQYKDQADKASTRLKQLKRQLEEAEEEAQRANASRRKLQRELEDATETADAMNREISSLKNKLRRGDLPFVVPRRMARKGAGDGSDEEVDGKADGAEAKPAE
modifications: His tag
notes: His-tagged human NM-MHC IIA residues Q1761-E1960, V1913I substitution
Fraction of observed change
  fast amplitude, no S100A4: 22%
  slow amplitude, no S100A4: 78%
No S100A4
  fast amplitude relative to full dissociation: 12%
  slow amplitude relative to full dissociation: 43%

Source: article PMC3025356, “Mechanism of the Ca^2+-Dependent Interaction between S100A4 and Tail Fragments of Nonmuscle Myosin Heavy Chain IIA” (Journal of Molecular Biology, 2011)
